Library screening results

Protein sequences, listed by entry. Tags and fused reporters are not part of them.
UniProt E9BF75, entry or part of it: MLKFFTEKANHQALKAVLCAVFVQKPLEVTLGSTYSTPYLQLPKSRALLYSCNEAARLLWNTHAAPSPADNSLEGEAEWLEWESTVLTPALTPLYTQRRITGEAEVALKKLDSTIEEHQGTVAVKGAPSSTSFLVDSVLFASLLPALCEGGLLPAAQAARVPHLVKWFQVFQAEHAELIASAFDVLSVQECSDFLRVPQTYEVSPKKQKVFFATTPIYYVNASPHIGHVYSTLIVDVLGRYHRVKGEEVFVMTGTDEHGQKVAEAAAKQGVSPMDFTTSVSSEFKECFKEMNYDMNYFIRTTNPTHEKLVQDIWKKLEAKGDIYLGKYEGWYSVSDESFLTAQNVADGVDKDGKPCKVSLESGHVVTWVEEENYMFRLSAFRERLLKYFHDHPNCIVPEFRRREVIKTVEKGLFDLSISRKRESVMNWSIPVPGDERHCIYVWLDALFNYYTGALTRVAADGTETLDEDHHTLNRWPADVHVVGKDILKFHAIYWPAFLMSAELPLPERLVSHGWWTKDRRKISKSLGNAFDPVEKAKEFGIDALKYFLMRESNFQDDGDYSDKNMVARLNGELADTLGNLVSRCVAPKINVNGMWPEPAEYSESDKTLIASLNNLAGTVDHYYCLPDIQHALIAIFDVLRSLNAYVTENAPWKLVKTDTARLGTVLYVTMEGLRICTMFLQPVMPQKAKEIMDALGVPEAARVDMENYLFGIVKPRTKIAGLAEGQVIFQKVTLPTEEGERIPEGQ

LdMetRS: 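Methionyl-tRNA synthetase (putative), Leishmania donovani (UniProt E9BF75). Primary screen of methionyl-tRNA synthetase; the read-out is not stated. The test concentration is not given. The values are filed as inhibition. About 68,000 compounds were tested under these conditions; 0.035% (about 24) showed 50% or more at least once.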
Mtb heat-shock: 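Assay on Mycobacterium tuberculosis, filed only as a heat shock assay from Cornell; the read-out is not stated. The concentration is filed as 10 mM, unlikely as a test dose, so the dose is not known. Higher reads as stronger inhibition (inferred: compounds with an IC50 in retests scored well above the rest). Size under these conditions: about 69,000 compounds, about 930 of them at 50% or above in at least one test.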

Results are percentages, as filed. How 0% and 100% were set is not recorded. Most values in the screen are low, and negative values occur. Compounds were drawn at random from those tested, without regard to their results.

- CN(C)c1nc2n(c(=O)n1)CCN2C(=O)Nc1cccc(Cl)c1 | LdMetRS: 6.789%; Mtb heat-shock: -4.61%
- O=C(c1cnccn1)N1CCCC(Cn2cc(C3CC3)nn2)C1 (centres undefined) | LdMetRS: 11.85%; Mtb heat-shock: 15.16%
- Cn1cccc1C(O)CNC(=O)COc1ccc(Cl)cc1Cl (centres undefined) | LdMetRS: -0.7194%; Mtb heat-shock: 19.89%
- CC(Nc1ncnc2c1CCNCC2)c1nc2c(s1)CCCC2 (centres undefined) | LdMetRS: 0.5602%; Mtb heat-shock: -15.52%
- CNC(=O)c1ccc(C2CN(C(=O)c3scnc3C)CCO2)nc1 (centres undefined) | LdMetRS: 16.15%; Mtb heat-shock: -5.042%
- Cc1cc(=O)n(C)cc1NC(=O)Cc1cc(F)ccc1F | LdMetRS: 10.48%; Mtb heat-shock: -1.13%
- COc1cc(C)cc(-c2nc3c([nH]2)CCNC3)c1OC | LdMetRS: 3.846%; Mtb heat-shock: -19.77%
- Cc1ccc(C(=O)N2CCn3c(COCC4CC4)cnc3C2C)s1 (centres undefined) | LdMetRS: 11.11%; Mtb heat-shock: -28.03%
- O=C(O)C(F)(F)F.[H][C@@]12CCN(Cc3ccccc3)[C@@]1([H])CC(=O)N2CCOC | Mtb heat-shock: 3.349%
- O=C(c1cccs1)N1CCC[C@]2(C[C@@H](OCc3ccncc3)CO2)C1 | LdMetRS: 12.7%
- CCn1c(SCC(=O)N2CCOCC2)nc2cc(C)[nH]c2c1=O | LdMetRS: 0%; Mtb heat-shock: -12.34%
- CCOCC1CN(CCN2CCCCC2)Cc2cnn(C)c21.O=C(O)C(F)(F)F.O=C(O)C(F)(F)F.O=C(O)C(F)(F)F (centres undefined) | Mtb heat-shock: -4.974%
- CCCN1C(=O)C2(CCCCC2)NC1c1cn(C)c(=O)n(C)c1=O (centres undefined) | LdMetRS: 9.409%; Mtb heat-shock: -7.147%
- COCC(=O)NCCCn1nc2ccccn2c1=O | LdMetRS: 12.72%; Mtb heat-shock: -5.688%
- Cc1cc(CN2CC[C@H]3C[C@@H](c4nc(C5CC5)cs4)O[C@@H]3C2)no1 | LdMetRS: 22.34%
- Cc1ncsc1-c1nnc(C2CCCN2C(=O)CCn2cccn2)o1 (centres undefined) | LdMetRS: 14.6%; Mtb heat-shock: 13.77%
- Cc1cccc(CN2Cc3nccn3CC(CN3CCOCC3)C2)c1.O=C(O)C(F)(F)F.O=C(O)C(F)(F)F (centres undefined) | Mtb heat-shock: -25.56%
- CN1CC[C@H](N(Cc2ccccc2)CC2CC2)C[C@H](O)C1 | LdMetRS: 2.432%; Mtb heat-shock: -46.36%
- Cc1nc(CN2CCC(N(C)Cc3noc(C(C)C)n3)C2)oc1C (centres undefined) | LdMetRS: -1.737%; Mtb heat-shock: -9.43%
- CC(C)n1cnnc1CN(C)Cc1ccoc1 | LdMetRS: 9.966%; Mtb heat-shock: 14.29%
- CN(C)c1ccc(NC(=O)NCc2ccc(Cl)s2)cn1 | LdMetRS: 16.43%; Mtb heat-shock: -10.51%
- CC(C)C(=O)N1CC[C@@H]2CN(Cc3ccncc3)S(=O)(=O)[C@@H]2CC1 | LdMetRS: 7.958%
- OC1CCCN(CCNc2ncc(Cl)cc2F)C1 (centres undefined) | LdMetRS: 4.061%; Mtb heat-shock: -18.48%
- O=C(CCc1cscn1)NS(=O)(=O)c1ccc2ccccc2c1 | LdMetRS: 14.16%; Mtb heat-shock: -8.872%
- O=C(O)C(F)(F)F.[H][C@@]12CN(Cc3ccco3)CCC[C@]1(C(=O)O)CN(c1ncc(C)cn1)C2 | Mtb heat-shock: -22.24%
- CO[C@H]1CCN(Cc2cnn(C)c2)[C@@H]2CN(Cc3ccncc3)C[C@H]12 | LdMetRS: 7.781%
- COc1c(Br)cccc1CCNC(=O)c1ncoc1C | LdMetRS: 7.796%; Mtb heat-shock: -22.3%
- Cn1nnc2c1CCN(Cc1nccs1)C2COCc1ccccc1.O=C(O)C(F)(F)F (centres undefined) | Mtb heat-shock: 7.839%

For reference, 2 entries once more:

{"smiles": "CO[C@H]1CCN(Cc2cnn(C)c2)[C@@H]2CN(Cc3ccncc3)C[C@H]12", "LdMetRS": 7.781}
{"smiles": "OC1CCCN(CCNc2ncc(Cl)cc2F)C1", "stereo": "centres undefined", "LdMetRS": 4.061, "Mtb heat-shock": -18.48}

The values are deposited in ChEMBL (CHEMBL3988442, “University of Dundee, Small-Polar-MMV Screening Library” (2021)).